Here are results for three molecules from paper PMC6270420, “Antibacterial Activity of Salicylanilide 4-(Trifluoromethyl)benzoates” (Molecules, 2013).

This data set has as its system HepG2 cells. Put plainly: Cytotoxicity evaluation (CellTiter 96 MTS). It is filed as cell-based, human. As to the method: Seven esters and their parent salicylanilides with the most robust antimicrobial activity were tested for cytotoxicity in the human hepatocellular liver carcinoma cell line HepG2 (passages 21–24; ECACC, Salisbury, UK) using a standard colorimetric method measuring a tetrazolium salt reduction (CellTiter(R) 96 AQueous One Solution Assay, Promega G3580, Madison, WI, USA).
The cells were routinely cultured in Minimum Essentials Eagle Medium (Sigma-Aldrich, Darmstadt, Germany) supplemented with 10% foetal bovine serum (PAA; Biotech, Prague, Czech Republic), 1% of L-glutamine solution (Sigma-Aldrich), and non-essential amino acids solution (Sigma-Aldrich) in a humidified atmosphere containing 5% CO2 at 37 °C. For subculturing, the cells were harvested after trypsin/EDTA (Sigma-Aldrich) treatment at 37 °C. The cells treated with the tested substances were used as experimental groups. Untreated HepG2 cells were used as control groups.
The cells were seeded in density 1 × 10^4 cells per well in a 96-well plate with microscopic control. Next day, the cells were treated with each of the tested substances. […] The most of the tested compounds were prepared in incubation concentrations of 0.01–20 µM in triplicates. 4-(Trifluoromethyl)benzoic acid was applied in the concentrations of 10–4,000 µM in triplicates. The following types of controls were included: determination of 100% viability and 0% viability (the cells treated by 10% DMSO), no cell control and vehiculum controls. These checking samples were prepared in triplicates.
The treated cells were incubated together with controls at 37 °C for 24 h in 5% CO2 atmosphere. After this time reagent from the kit CellTiter 96 AQueous One Solution Cell Proliferation Assay was added. […] The tested plate was incubated for 2 h at 37 °C and 5% CO2 and after this time, the absorbance was recorded at 490 nm using a 96-well plate reader (TECAN, Infinite M200, Grödig, Austria). […]
Regarding `O=C(Oc1ccc(Cl)cc1C(=O)Nc1ccc(Cl)c(Cl)c1)c1ccc(C(F)(F)F)cc1` [1e], the “IC50 of ester relative to parent salicylanilide (higher IC50)” value is listed as 3.7 fold. In the case of `O=C(Oc1cc(Cl)ccc1C(=O)Nc1ccc(C(F)(F)F)cc1)c1ccc(C(F)(F)F)cc1` [1p] it was 3.7 fold; in that of `O=C(Oc1ccc(Br)cc1C(=O)Nc1ccc(C(F)(F)F)cc1)c1ccc(C(F)(F)F)cc1` [1r], 1.2 fold.
